PubChem BioAssay AID743121, NCATS – 2013
Shown is one part, drawn at random, of about 26,000 reagents. 167 of them (0.63%) were called active. 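Calls are per gene from RSA p-values that are not deposited; an individual active-marked siRNA can sensitise only weakly.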 Reagents against one gene are numbered here.

Screen: 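Knock-downs that sensitise breast cancer cells to camptothecin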 (primary screen)
Cells: MDA-MB-231 cells, a human breast cancer line
Reagents: single siRNA against human genes, 20 nM siRNA (0.8 pmol per well)
Duration: 120 h (drug added 48 h after transfection, read 72 h later)
Challenge: camptothecin 20 nM (about EC30) for 72 h; vehicle 0.1% DMSO in parallel plates
Measured: 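Cell viability by ATP luminescence (CellTiter-Glo) as % of non-targeting siRNA wells, and the log2 ratio of viability without drug over viability with camptothecin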
Direction: log2 vehicle/camptothecin viability: higher = stronger sensitisation to camptothecin; viability with camptothecin and viability without drug: higher = more viable cells
Rule for the call: 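Each gene scored by redundant siRNA activity (RSA) over its individual siRNA ratios; a gene is called active at p < 0.001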

Gene | reagent no. | log2 vehicle/camptothecin viability | viability with camptothecin (% of control) | viability without drug (% of control) | Call
CHEK1 | 1 | 0.213 | 30.1 | 34.8 | active
CHEK1 | 2 | 0.224 | 28.6 | 33.4 | active
CHEK1 | 3 | 0.19 | 49 | 55.9 | active
CHEK1 | 4 | 0.249 | 35.4 | 42 | active
CALM1 | 1 | -0.13 | 120 | 109 | inactive
CALM1 | 2 | -0.594 | 130 | 85.9 | inactive
CALM1 | 3 | 0.401 | 68.8 | 90.8 | inactive
CALM1 | 4 | -0.445 | 90.3 | 66.3 | inactive
PEX7 | 1 | -0.244 | 95.6 | 80.7 | inactive
PEX7 | 2 | -0.451 | 76.1 | 55.7 | inactive
PEX7 | 3 | -0.133 | 97.3 | 88.7 | inactive
PEX7 | 4 | -0.151 | 39.1 | 35.2 | inactive
TBP | 1 | -0.262 | 94.4 | 78.7 | inactive
TBP | 2 | -0.382 | 79.5 | 61 | inactive
TBP | 3 | -0.09 | 26 | 24.4 | inactive
HSPA4 | 1 | -0.0695 | 69.7 | 66.4 | inactive
HSPA4 | 2 | -0.117 | 85.8 | 79.1 | inactive
HSPA4 | 3 | 0.148 | 37.4 | 41.4 | inactive
HSPA4 | 4 | -0.314 | 87.9 | 70.7 | inactive
GDNF | 1 | -0.0091 | 60.7 | 60.3 | inactive
GDNF | 2 | -0.363 | 92.5 | 71.9 | inactive
GDNF | 3 | -0.314 | 92.1 | 74.1 | inactive
GDNF | 4 | 0.0113 | 121 | 122 | inactive
PRKD1 | 1 | -0.287 | 98.2 | 80.5 | inactive
PRKD1 | 2 | -0.221 | 67.7 | 58.1 | inactive
PRKD1 | 3 | 0.0555 | 93.6 | 97.3 | inactive
PRKD1 | 4 | 0.0726 | 60.1 | 63.2 | inactive
ECD | 1 | -0.53 | 105 | 72.7 | inactive
ECD | 2 | -0.153 | 52.2 | 47 | inactive
ECD | 3 | 0.506 | 50.4 | 71.6 | inactive
ECD | 4 | -0.0739 | 91.7 | 87.1 | inactive
INPP5J | 1 | -0.259 | 66.9 | 55.9 | inactive
INPP5J | 2 | 0.146 | 51.2 | 56.6 | inactive
INPP5J | 3 | 0.104 | 101 | 109 | inactive
INPP5J | 4 | -0.273 | 89.4 | 74 | inactive
ABCD1 | 1 | -0.944 | 85.1 | 44.3 | inactive
ABCD1 | 2 | -0.152 | 43.5 | 39.1 | inactive
ABCD1 | 3 | -0.277 | 121 | 99.8 | inactive
ABCD1 | 4 | -0.0873 | 53 | 49.8 | inactive
PHF12 | 1 | -0.0604 | 36.2 | 34.7 | inactive
PHF12 | 2 | 0.29 | 56.7 | 69.4 | inactive
PHF12 | 3 | 0.347 | 28.2 | 35.8 | inactive
PHF12 | 4 | -0.0396 | 108 | 105 | inactive
FGF19 | 1 | -0.152 | 104 | 93.4 | inactive
FGF19 | 2 | -0.286 | 59.5 | 48.8 | inactive
FGF19 | 3 | 0.275 | 69.8 | 84.5 | inactive
FGF19 | 4 | -0.642 | 112 | 71.8 | inactive
CCL23 | 1 | -0.64 | 124 | 79.7 | inactive
CCL23 | 2 | -0.0347 | 78.1 | 76.3 | inactive
CCL23 | 3 | -0.105 | 90.3 | 84 | inactive
GPR153 | 1 | -0.745 | 51.7 | 30.8 | inactive
GPR153 | 2 | -0.246 | 78.7 | 66.4 | inactive
GPR153 | 3 | 0.224 | 45.6 | 53.3 | inactive
GPR153 | 4 | -0.202 | 108 | 94.1 | inactive
GGA3 | 1 | -0.127 | 42.9 | 39.3 | inactive
GGA3 | 2 | 0.919 | 50.4 | 95.2 | inactive
GGA3 | 3 | 0.287 | 36.2 | 44.1 | inactive
GGA3 | 4 | -0.097 | 83.8 | 78.3 | inactive

Single entries from the list:
Result of INPP5J #1 under “viability without drug (% of control)”: 55.9
Under “viability without drug (% of control)”, TBP #1 shows 78.7
Value of CHEK1 #1 in “viability with camptothecin (% of control)”: 30.1
Entry of FGF19 #2 in “viability with camptothecin (% of control)”: 59.5
For “log2 vehicle/camptothecin viability”, CHEK1 #2 shows 0.224
Under “viability with camptothecin (% of control)”, PHF12 #2 has 56.7

More reagents:
Gene | reagent no. | log2 vehicle/camptothecin viability | viability with camptothecin (% of control) | viability without drug (% of control) | Call
NECTIN1 | 1 | -0.321 | 54 | 43.2 | inactive
NECTIN1 | 2 | -0.292 | 70 | 57.2 | inactive
NECTIN1 | 3 | 0.0563 | 46.5 | 48.3 | inactive
NECTIN1 | 4 | -0.195 | 74.7 | 65.2 | inactive
MC3R | 1 | -0.163 | 59.3 | 53 | inactive
MC3R | 2 | 0.429 | 70.5 | 94.9 | inactive
MC3R | 3 | -0.614 | 155 | 101 | inactive
MC3R | 4 | -0.433 | 136 | 101 | inactive
F12 | 1 | -0.317 | 58.2 | 46.7 | inactive
F12 | 2 | -0.43 | 70.6 | 52.4 | inactive
F12 | 3 | -0.0635 | 95.8 | 91.6 | inactive
F12 | 4 | -0.0658 | 65.4 | 62.5 | inactive
ASH2L | 1 | -0.666 | 100 | 63.2 | inactive
ASH2L | 2 | -0.228 | 82.7 | 70.7 | inactive
ASH2L | 3 | 0.138 | 44.1 | 48.6 | inactive
ASH2L | 4 | 0.858 | 42.4 | 76.8 | inactive
ITPK1 | 1 | -0.206 | 54.9 | 47.6 | inactive
ITPK1 | 2 | -0.263 | 90.3 | 75.3 | inactive
ITPK1 | 3 | 0.0448 | 29.8 | 30.8 | inactive
ITPK1 | 4 | -0.416 | 85 | 63.7 | inactive
DAP3 | 1 | -0.217 | 81.2 | 69.8 | inactive
DAP3 | 2 | -0.12 | 56.6 | 52 | inactive
DAP3 | 3 | -0.326 | 67.2 | 53.6 | inactive
DAP3 | 4 | -0.117 | 55.7 | 51.3 | inactive
PEA15 | 1 | -0.0546 | 76.7 | 73.9 | inactive
PEA15 | 2 | -0.34 | 78.4 | 61.9 | inactive
PEA15 | 3 | -0.204 | 95.4 | 82.8 | inactive
PEA15 | 4 | -0.0803 | 90 | 85.1 | inactive
MMAA | 1 | -0.0947 | 64.5 | 60.4 | inactive
MMAA | 2 | -0.12 | 73.5 | 67.6 | inactive
MMAA | 3 | -0.468 | 49.1 | 35.5 | inactive
MMAA | 4 | -0.529 | 112 | 77.4 | inactive
